Measured values from publication PMC11953741.
Results are given in words; binding and its absence hold for the method and conditions named. In cells and extracts the contact can be indirect. Some entries that bind do so weakly or less than the wild type. Where a sequence is shown, tags or fusion partners need not be part of it.

Protein sequences, listed by entry. Tags and fused reporters are not part of them.
UniProt P33895: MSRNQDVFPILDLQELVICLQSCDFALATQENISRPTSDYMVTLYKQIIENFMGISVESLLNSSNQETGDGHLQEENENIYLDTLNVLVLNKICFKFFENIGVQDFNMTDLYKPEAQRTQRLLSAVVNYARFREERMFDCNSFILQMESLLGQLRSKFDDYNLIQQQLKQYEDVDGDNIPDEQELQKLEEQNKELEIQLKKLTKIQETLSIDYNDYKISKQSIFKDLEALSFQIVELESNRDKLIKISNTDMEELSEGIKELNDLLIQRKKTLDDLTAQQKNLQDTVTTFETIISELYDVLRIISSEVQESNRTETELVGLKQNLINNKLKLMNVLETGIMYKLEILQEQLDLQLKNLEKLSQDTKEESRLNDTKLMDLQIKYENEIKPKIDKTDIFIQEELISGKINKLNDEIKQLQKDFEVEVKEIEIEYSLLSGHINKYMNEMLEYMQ

Biological target: T1, Dad1-3Flag (Dam1 complex component Dad1) (S. cerevisiae) (UniProt Q12248)
T1 sequence: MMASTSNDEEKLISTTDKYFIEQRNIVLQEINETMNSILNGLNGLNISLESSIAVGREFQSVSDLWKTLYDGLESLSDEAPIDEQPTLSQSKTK
Experiment: co-IP; Flag immunoprecipitation of Dad1-3Flag from benzonase-treated yeast extracts (anti-Flag M3DK on Protein G Dynabeads, 3 h at 4 °C, Buffer H/0.15 with 150 mM KCl, pH 8.0), eluted with 3x M3DK peptide, silver-stained SDS-PAGE

Nuf2-3V5 (S. cerevisiae Nuf2 kinetochore protein, wild type) (from UniProt P33895 1-451)
binding: binds
